Measured values as given in PubChem BioAssay AID504834 (National Center for Advancing Translational Sciences (NCATS), 2011).
Out of some 320,000 compounds screened, about 22,000 (6.9%) were called active. This list was built around the results that the source calls inconclusive (neither active nor inactive); the mix of calls is not that of the screen. Calls follow the shape of the dose curve; as a rule, active = well fitted inhibition curve with a large enough effect; inconclusive = small, poorly fitted or top-dose-only effect, or another doubt; inactive = no such curve, though single readings can be large or run the other way. Where the call is inconclusive, the potency comes from a doubtful curve fit.

Experiment: Primary qHTS for delayed death inhibitors of the malarial parasite plastid, 96 hour incubation
Settings: P. falciparum luciferase reporter growth; series mostly up to 28.7 µM; activity change, negative = inhibition: at the top concentration
How it was run: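 Two parasite generations (96 h, 37 C, 5% CO2) of compound exposure in infected erythrocytes (0.05% parasitemia, 2% hematocrit). Luciferase-reporter P. falciparum; decreased luminescence indicates inhibited growth, aimed at apicoplast-acting delayed death.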
% is scaled to controls: 0 for no effect and ±100 for the full control effect; potency is read from the fitted curve at half-maximal effect.

Compound | Potency | activity change, negative = inhibition
COC(=O)C1=C(c2cccc(OCc3ccccc3)c2)C[C@@H]2CC[C@H]1N2C(=O)NCCCc1ccccc1 | inconclusive: 8.28 µM [inhibitor, partial curve] | –
CCOC(=O)c1c(C)oc2cc(Br)c(OCC(N)=O)cc12 | inconclusive: 3.7 µM [inhibitor, partial curve, poor fit] | –
COc1cccc(Nc2nnc(SCC(=O)N3CCOCC3)s2)c1 | – | inactive: 64.4%
COc1cccc(Cn2cnc3c(NS(=O)(=O)c4cccc(Cl)c4Cl)c(C)c(C)cc32)c1 | inconclusive: 9.28 µM [inhibitor, partial curve, poor fit] | –
COc1cc2c(cc1OC)CN(C(=O)c1ccc(Br)o1)CC2 | inconclusive: 6.57 µM [inhibitor, partial curve, poor fit] | –
CCOc1ccc(S(=O)(=O)N2CCCCC2)cc1NC(=O)C1CSC2(C)CCC(=O)N12 (stereo not given) | inconclusive: 9.28 µM [inhibitor, partial curve] | –
CCOc1ccc(-n2nc(C(=O)N3CCN(CC)CC3)c3ccccc3c2=O)cc1 | inconclusive: 2.62 µM [inhibitor, full curve] | –
Cc1oc(-c2cccc(Br)c2)[n+]([O-])c1C | inconclusive: 18.5 µM [inhibitor, single point] | –
C/C(=N\NC(=O)c1cccc([N+](=O)[O-])c1)c1cccnc1 | – | inactive: -24.8%
Cc1cccc(N2C(=O)CC(N3CCN(c4ccc(Cl)cc4)CC3)C2=O)c1 (stereo not given) | inconclusive: 18.5 µM [inhibitor, single point] | –
Clc1ccc(OCCCc2nc(-c3cccnc3)no2)c(Cl)c1 | active: 9.28 µM | –
Cc1ccc(N(C)S(=O)(=O)c2ccc3c(c2)NC(=O)C(C)S3)cc1 (stereo not given) | inconclusive: 18.5 µM [inhibitor, single point] | –
Cc1ccc(S(=O)(=O)N(C)c2c(C)ccc(S(N)(=O)=O)c2C)cc1 | – | inactive: 11.3%
Cc1ccc(CN(C)C(=O)C2CCC(=O)N(CC3CCCCC3)C2)o1 (stereo not given) | inconclusive: 10.4 µM [inhibitor, single point] | –
O=C(NCCc1ccccc1)C1CC1 | – | inactive: 24.6%
O=C(CSc1nnc(CNc2ccc(F)cc2)n1Cc1ccco1)N1CCCC1 | inconclusive: 18.5 µM [inhibitor, single point] | –
Cn1c(-[n+]2c(-c3ccccc3)cc(-c3ccccc3)cc2-c2ccccc2)nc2cc([N+](=O)[O-])ccc21 | active: 3.29 µM | –
CC1CCN(CC(=O)NCCc2ccc(F)cc2)CC1 | inconclusive: 14.7 µM [inhibitor, partial curve, poor fit] | –
CCCC(CCC)=NNc1ccc(S(=O)(=O)Nc2ccccc2OC)cc1[N+](=O)[O-] | inconclusive: 10.4 µM [inhibitor, partial curve, poor fit] | –
COc1ccc(NC(C)C(=O)Nc2cc(C(F)(F)F)ccc2N2CCOCC2)c(OC)c1 (stereo not given) | active: 0.0465 µM | –
Cc1cccc(Nc2nc(N)nc(CN3CCN(c4ccc(F)cc4)CC3)n2)c1 | active: 10.4 µM | –
O=C1CN(C(=O)COc2ccc(Br)cc2Br)c2ccccc2N1 | inconclusive: 14.7 µM [inhibitor, partial curve, poor fit] | –
COCCn1c(SCc2cccc([N+](=O)[O-])c2)nc2ccccc2c1=O | inconclusive: 8.28 µM [inhibitor, partial curve] | –
COC(=O)c1c(NC(=O)/C=C/C(=O)O)sc(Cc2ccccc2)c1C | inconclusive: 13.1 µM [inhibitor, single point] | –

Compound | Potency | activity change, negative = inhibition
CC(C)Sc1nc(N2CCOCC2)c2c(c1C#N)CC(C)(C)SC2 | inconclusive: 18.5 µM [inhibitor, single point] | –
Cc1ccc(S(=O)(=O)c2ccc(Cl)cc2)cc1S(N)(=O)=O | inconclusive: 14.7 µM [inhibitor, single point] | –
CC(=O)Nc1c(-c2cc(=O)oc3cc(C)ccc23)oc2ccccc12 | inconclusive: 20.8 µM [inhibitor, partial curve, poor fit] | –
Cc1cc(C)c(C)c(S(=O)(=O)N2CCN(CC(=O)NC(=O)NCc3ccccc3)CC2)c1C | inconclusive: 9.28 µM [inhibitor, partial curve] | –
Cc1cc(O)c(C(=O)/C=C/c2ccccc2O)c(=O)o1 | – | inactive: -17.1%
CCOc1ccc(-c2c(C(=O)N/N=C/c3cccc(Br)c3)nnn2-c2nonc2N)cc1 | active: 2.94 µM | –
CC1CC(C)(C)NC(=S)N1CC(=O)NCc1ccc(Cl)cc1 (stereo not given) | inconclusive: 18.5 µM [inhibitor, single point] | –
COc1cc(Cl)ccc1OCc1cc(C(=O)N(C)CCc2c(C)n[nH]c2C)no1 | inconclusive: 10.4 µM [inhibitor, single point] | –
CC(=O)NCc1cc(Cl)c2cccnc2c1O | – | inactive: -11.9%
CCC(C)Oc1ccc(C(=O)Nc2ccc(CN3CCOCC3)cc2)cc1 (stereo not given) | inconclusive: 10.4 µM [inhibitor, partial curve] | –
N#Cc1c(-c2ccc(C(F)(F)F)cc2)cc(-c2ccccc2)[nH]c1=S | inconclusive: 9.28 µM [inhibitor, partial curve] | –
O=C(CNC(=O)c1ccco1)N/N=C/c1ccc(O)cc1O | inconclusive: 1.65 µM [inhibitor, full curve] | –
COc1cccc(/C=C2\Oc3cc(OCC(=O)N4CCCCC4)ccc3C2=O)c1OC | inconclusive: 8.28 µM [inhibitor, single point] | –
CC(Sc1ccc(S(=O)(=O)N2CCN(C)CC2)cn1)C(=O)NC1CCCCC1 (stereo not given) | inconclusive: 14.7 µM [inhibitor, partial curve, poor fit] | –
COc1ccccc1NC(=O)c1ccc(NC(=O)c2ccc(=O)[nH]c2)cc1 | inconclusive: 18.5 µM [inhibitor, single point] | –
Cc1ccc(C(C)C)c(OCC(=O)Nn2c(C)nc3ccccc3c2=O)c1 | inconclusive: 14.7 µM [inhibitor, single point] | –
CCOc1ccc(Cc2nnc(SCC(=O)Nc3ccccc3)n(N)c2=O)cc1 | inconclusive: 20.8 µM [inhibitor, partial curve, poor fit] | –
COc1ccc(-c2ccccc2)cc1NCc1ccc(OC)c(OC)c1 | – | inactive: 61.6%
C=C(C)C(=O)N1CC2(CC(c3cccc(NC(=O)CC(c4ccccc4)c4ccccc4)c3)=NO2)C[C@H]1C(N)=O (stereo not given in full) | inconclusive: 18.5 µM [inhibitor, single point] | –
CCN=C1NN=C(c2c[nH]c3ccccc23)CS1 | – | inactive: -89.3%
CCOC(=O)c1sc(NC(=O)c2ccc(C)s2)cc1C | – | inactive: 0%
CN1CCc2c1nc1ccccc1c2N=C1CCCN1Cc1ccccc1 | inconclusive: 18.5 µM [inhibitor, single point] | –
Cc1ccc(SC(c2ccc(C)cc2)C(Cn2cncn2)C(=O)c2ccccc2)cc1 (stereo not given) | inconclusive: 18.5 µM [inhibitor, single point] | –
COc1ccc(CCCNC(=O)C2CCC(=O)N(Cc3ccc(Cl)cc3)C2)cc1 (stereo not given) | inconclusive: 18.5 µM [inhibitor, single point] | –

Compound | Potency | activity change, negative = inhibition
CN1CCN(C(=O)/C=C/c2ccc(C#N)cc2)CC1 | – | inactive: 24.5%
CCc1ccc(NC(=O)C/C(C)=N/NC(=O)COc2ccc(C)cc2Br)cc1 | – | inactive: -10.8%
CC(c1ccccc1)c1nnc(N)s1 (stereo not given) | – | inactive: 4.3%
N#Cc1nc(Cc2cccc3ccccc23)oc1N1CCOCC1 | active: 2.08 µM | –
Cc1nc2c(c(=O)n1CCC1=CCCCC1)c1nc3ccccc3nc1n2/N=C/c1ccccc1 | – | inactive: -6%
COC(=O)c1sccc1NC(=O)/C=C/c1ccc(Cl)cc1 | active: 13.1 µM | –
O=C(c1cc([N+](=O)[O-])ccc1Cl)N1CCc2ccccc21 | – | inactive: -20.2%
Cc1oc(-c2ccccc2F)nc1CS(=O)(=O)CC(=O)N1CCN(Cc2ccccc2)CC1 | inconclusive: 20.8 µM [inhibitor, partial curve, poor fit] | –
CC(OC(=O)CCc1c[nH]c2ccccc12)C(=O)c1ccccc1 (stereo not given) | inconclusive: 11.7 µM [inhibitor, single point] | –
CCOC(=O)C1CCN(C(=O)Cn2cnc3sc(C)c(S(=O)(=O)N4CCC(C)CC4)c3c2=O)CC1 | – | inactive: 10.7%
CCCOn1nnnc1-c1ccccc1 | inconclusive: 0.262 µM [inhibitor, partial curve, poor fit] | –
CCn1nc(C(=O)Nc2ccc(S(=O)(=O)Nc3ncccn3)cc2)c2ccccc2c1=O | – | inactive: 2.86%
CN(C)c1ccc(/C=C/c2nc3ccccc3c(=O)n2CCO)cc1 | inconclusive: 13.1 µM [inhibitor, single point] | –
CCOC(=O)c1ccccc1NC(=O)COC(=O)c1cc([N+](=O)[O-])ccc1N1CCOCC1 | inconclusive: 18.5 µM [inhibitor, single point] | –
CCOc1ccc(S(=O)(=O)N2CCN(C(=O)C3CCC3)CC2)cc1 | inconclusive: 8.28 µM [inhibitor, partial curve] | –
Brc1ccc(CSc2nnc(-c3ccccn3)n2Cc2ccco2)cc1 | active: 3.7 µM | –
CCOC(=O)COc1ccc(Oc2nc(C)cc(OC)n2)nn1 | – | inactive: 5.25%
CCNC(=O)NC(=O)COC(=O)CCCSc1nc2ccccc2s1 | – | inactive: -8.42%
Cc1cc(OCC(=O)N2CCOCC2)cc2oc(=O)c3ccccc3c12 | inconclusive: 18.5 µM [inhibitor, single point] | –
O=C(O)CCCC(=O)OCCCCc1cccs1 | active: 5.22 µM | –
CCOc1ccc2c(c1)C(N(CCN1CCOCC1)C(=O)Nc1ccc(OC)cc1OC)CC(C)(C)O2 (stereo not given) | inconclusive: 0.233 µM [inhibitor, partial curve, poor fit] | –
O=C(Nc1cccc(-c2nc3ncccc3o2)c1)c1sc2ccccc2c1Cl | – | inactive: 0%

Some of the entries so far, with tabs:
Compound	Potency	activity change, negative = inhibition
COc1ccc(CCCNC(=O)C2CCC(=O)N(Cc3ccc(Cl)cc3)C2)cc1 (stereo not given)	inconclusive: 18.5 µM [inhibitor, single point]	–
CN1CCN(C(=O)/C=C/c2ccc(C#N)cc2)CC1	–	inactive: 24.5%
CCc1ccc(NC(=O)C/C(C)=N/NC(=O)COc2ccc(C)cc2Br)cc1	–	inactive: -10.8%
CC(c1ccccc1)c1nnc(N)s1 (stereo not given)	–	inactive: 4.3%
N#Cc1nc(Cc2cccc3ccccc23)oc1N1CCOCC1	active: 2.08 µM	–
Cc1nc2c(c(=O)n1CCC1=CCCCC1)c1nc3ccccc3nc1n2/N=C/c1ccccc1	–	inactive: -6%
COC(=O)c1sccc1NC(=O)/C=C/c1ccc(Cl)cc1	active: 13.1 µM	–
O=C(c1cc([N+](=O)[O-])ccc1Cl)N1CCc2ccccc21	–	inactive: -20.2%
Cc1oc(-c2ccccc2F)nc1CS(=O)(=O)CC(=O)N1CCN(Cc2ccccc2)CC1	inconclusive: 20.8 µM [inhibitor, partial curve, poor fit]	–
CC(OC(=O)CCc1c[nH]c2ccccc12)C(=O)c1ccccc1 (stereo not given)	inconclusive: 11.7 µM [inhibitor, single point]	–
CCOC(=O)C1CCN(C(=O)Cn2cnc3sc(C)c(S(=O)(=O)N4CCC(C)CC4)c3c2=O)CC1	–	inactive: 10.7%
CCCOn1nnnc1-c1ccccc1	inconclusive: 0.262 µM [inhibitor, partial curve, poor fit]	–
CCn1nc(C(=O)Nc2ccc(S(=O)(=O)Nc3ncccn3)cc2)c2ccccc2c1=O	–	inactive: 2.86%
CN(C)c1ccc(/C=C/c2nc3ccccc3c(=O)n2CCO)cc1	inconclusive: 13.1 µM [inhibitor, single point]	–
CCOC(=O)c1ccccc1NC(=O)COC(=O)c1cc([N+](=O)[O-])ccc1N1CCOCC1	inconclusive: 18.5 µM [inhibitor, single point]	–
CCOc1ccc(S(=O)(=O)N2CCN(C(=O)C3CCC3)CC2)cc1	inconclusive: 8.28 µM [inhibitor, partial curve]	–
Brc1ccc(CSc2nnc(-c3ccccn3)n2Cc2ccco2)cc1	active: 3.7 µM	–
CCOC(=O)COc1ccc(Oc2nc(C)cc(OC)n2)nn1	–	inactive: 5.25%

Single records, from the list above.
Cc1cccc(Nc2nc(N)nc(CN3CCN(c4ccc(F)cc4)CC3)n2)c1 reads Potency: active: 10.4 µM
Cc1ccc(CN(C)C(=O)C2CCC(=O)N(CC3CCCCC3)C2)o1 (stereo not given) reads Potency: inconclusive: 10.4 µM [inhibitor, single point]
